Data as given in patent US8580511B2, “Two-color fluorescent reporter for alternative pre-mRNA splicing” (The Regents of the University of California, priority 2006, dated 2013).

System: exon 10 of the human tau gene
Test: High-throughput small molecule screen with two-color fluorescent (GFP/RFP) splicing reporter in stable cell line
Format: cell-based
Settings: log2 of RFP/GFP fluorescence, background subtracted, Lowess normalized; enzyme inhibitor library; 16 hours incubation; DMSO control −0.21
Source text: Exon 10 of the human tau gene (SEQ ID NO:9; see also, GenBank Accession No. AF027494) containing short stretches (about 50-100 nucleotides) of each of the flanking introns (i.e., intronic sequences from introns 9 and 10; see, e.g., Wang et al., J. Neurochem., 88:1078-1090 (2004)) was cloned into the EcoRI and BamHI restriction sites of the reporter intron (SEQ ID NO:2), which interrupts the start codon of the GFP open reading frame. The clone was linearized using DraIII and transfected into adherent mammalian cells.
Since the fluorescence of some of the compounds screened could increase the background fluorescence by an order of magnitude, the background was calculated and subtracted for each well. In particular, the background was calculated by measuring the fluorescence of each channel after excitation with shorter wavelengths than the optimal for the reporter proteins. This measurement was corrected using data from non-reporter cells before being subtracted from the reporter-expressing cells as background. […]
The two-color fluorescent reporter constructs described above carrying exon 10 of the human tau gene were used in high-throughput small molecule screens of a library of enzyme inhibitors (FIG. 6A) and a library of FDA approved drugs (FIG. 6B). […] The fluorescence intensities were measured using an Analyst AD plate reader. […]

COC(=O)C1=C(C)NC(C)=C(C(=O)OC)C1c1ccccc1[N+](=O)[O-] [NIFEDIPINE]
Log-ratio: 0.64
